In the supplement of paper PMC10849652:
The list shows a part of the results.

Sequences of proteins named here, by UniProt entry; tags and fusion partners are left off. A change or cut given only in a name is not applied to a line headed by its entry.
UniProt Q8IY81: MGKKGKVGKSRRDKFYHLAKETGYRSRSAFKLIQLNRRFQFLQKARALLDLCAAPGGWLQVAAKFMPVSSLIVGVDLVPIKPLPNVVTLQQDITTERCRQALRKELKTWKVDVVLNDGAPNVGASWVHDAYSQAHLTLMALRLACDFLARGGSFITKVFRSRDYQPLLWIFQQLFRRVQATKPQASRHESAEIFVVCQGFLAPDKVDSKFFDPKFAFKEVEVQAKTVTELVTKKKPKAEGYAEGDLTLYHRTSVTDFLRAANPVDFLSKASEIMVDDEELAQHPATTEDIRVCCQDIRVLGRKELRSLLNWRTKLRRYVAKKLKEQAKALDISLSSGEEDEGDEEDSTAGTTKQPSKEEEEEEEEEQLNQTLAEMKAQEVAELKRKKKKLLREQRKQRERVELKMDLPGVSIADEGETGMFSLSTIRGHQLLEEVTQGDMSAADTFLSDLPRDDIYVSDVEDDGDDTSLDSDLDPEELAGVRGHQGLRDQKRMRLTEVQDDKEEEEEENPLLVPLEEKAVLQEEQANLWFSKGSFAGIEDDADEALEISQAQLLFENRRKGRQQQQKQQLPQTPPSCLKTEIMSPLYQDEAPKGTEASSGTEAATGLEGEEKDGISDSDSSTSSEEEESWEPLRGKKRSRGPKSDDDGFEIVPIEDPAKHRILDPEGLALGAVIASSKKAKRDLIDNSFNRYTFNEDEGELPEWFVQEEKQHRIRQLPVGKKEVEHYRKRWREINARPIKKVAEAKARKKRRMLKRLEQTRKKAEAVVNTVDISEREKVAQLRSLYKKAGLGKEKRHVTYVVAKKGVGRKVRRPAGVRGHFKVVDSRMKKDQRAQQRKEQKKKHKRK
UniProt Q9BUM1: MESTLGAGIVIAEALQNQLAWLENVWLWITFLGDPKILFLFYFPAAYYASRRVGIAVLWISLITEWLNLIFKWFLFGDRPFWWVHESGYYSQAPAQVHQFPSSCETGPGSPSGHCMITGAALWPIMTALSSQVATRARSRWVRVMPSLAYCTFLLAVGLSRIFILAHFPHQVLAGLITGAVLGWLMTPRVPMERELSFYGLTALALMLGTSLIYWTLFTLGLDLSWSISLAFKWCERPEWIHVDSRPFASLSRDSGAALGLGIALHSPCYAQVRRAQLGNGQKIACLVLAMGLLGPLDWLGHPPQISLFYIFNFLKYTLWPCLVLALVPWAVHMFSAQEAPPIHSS
UniProt Q9NWZ8: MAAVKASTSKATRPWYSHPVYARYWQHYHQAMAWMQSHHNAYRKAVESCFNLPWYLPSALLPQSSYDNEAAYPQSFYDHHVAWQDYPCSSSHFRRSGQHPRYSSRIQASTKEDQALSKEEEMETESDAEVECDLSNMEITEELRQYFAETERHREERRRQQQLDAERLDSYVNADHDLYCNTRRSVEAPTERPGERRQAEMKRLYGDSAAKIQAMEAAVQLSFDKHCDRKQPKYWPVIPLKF
UniProt O94915: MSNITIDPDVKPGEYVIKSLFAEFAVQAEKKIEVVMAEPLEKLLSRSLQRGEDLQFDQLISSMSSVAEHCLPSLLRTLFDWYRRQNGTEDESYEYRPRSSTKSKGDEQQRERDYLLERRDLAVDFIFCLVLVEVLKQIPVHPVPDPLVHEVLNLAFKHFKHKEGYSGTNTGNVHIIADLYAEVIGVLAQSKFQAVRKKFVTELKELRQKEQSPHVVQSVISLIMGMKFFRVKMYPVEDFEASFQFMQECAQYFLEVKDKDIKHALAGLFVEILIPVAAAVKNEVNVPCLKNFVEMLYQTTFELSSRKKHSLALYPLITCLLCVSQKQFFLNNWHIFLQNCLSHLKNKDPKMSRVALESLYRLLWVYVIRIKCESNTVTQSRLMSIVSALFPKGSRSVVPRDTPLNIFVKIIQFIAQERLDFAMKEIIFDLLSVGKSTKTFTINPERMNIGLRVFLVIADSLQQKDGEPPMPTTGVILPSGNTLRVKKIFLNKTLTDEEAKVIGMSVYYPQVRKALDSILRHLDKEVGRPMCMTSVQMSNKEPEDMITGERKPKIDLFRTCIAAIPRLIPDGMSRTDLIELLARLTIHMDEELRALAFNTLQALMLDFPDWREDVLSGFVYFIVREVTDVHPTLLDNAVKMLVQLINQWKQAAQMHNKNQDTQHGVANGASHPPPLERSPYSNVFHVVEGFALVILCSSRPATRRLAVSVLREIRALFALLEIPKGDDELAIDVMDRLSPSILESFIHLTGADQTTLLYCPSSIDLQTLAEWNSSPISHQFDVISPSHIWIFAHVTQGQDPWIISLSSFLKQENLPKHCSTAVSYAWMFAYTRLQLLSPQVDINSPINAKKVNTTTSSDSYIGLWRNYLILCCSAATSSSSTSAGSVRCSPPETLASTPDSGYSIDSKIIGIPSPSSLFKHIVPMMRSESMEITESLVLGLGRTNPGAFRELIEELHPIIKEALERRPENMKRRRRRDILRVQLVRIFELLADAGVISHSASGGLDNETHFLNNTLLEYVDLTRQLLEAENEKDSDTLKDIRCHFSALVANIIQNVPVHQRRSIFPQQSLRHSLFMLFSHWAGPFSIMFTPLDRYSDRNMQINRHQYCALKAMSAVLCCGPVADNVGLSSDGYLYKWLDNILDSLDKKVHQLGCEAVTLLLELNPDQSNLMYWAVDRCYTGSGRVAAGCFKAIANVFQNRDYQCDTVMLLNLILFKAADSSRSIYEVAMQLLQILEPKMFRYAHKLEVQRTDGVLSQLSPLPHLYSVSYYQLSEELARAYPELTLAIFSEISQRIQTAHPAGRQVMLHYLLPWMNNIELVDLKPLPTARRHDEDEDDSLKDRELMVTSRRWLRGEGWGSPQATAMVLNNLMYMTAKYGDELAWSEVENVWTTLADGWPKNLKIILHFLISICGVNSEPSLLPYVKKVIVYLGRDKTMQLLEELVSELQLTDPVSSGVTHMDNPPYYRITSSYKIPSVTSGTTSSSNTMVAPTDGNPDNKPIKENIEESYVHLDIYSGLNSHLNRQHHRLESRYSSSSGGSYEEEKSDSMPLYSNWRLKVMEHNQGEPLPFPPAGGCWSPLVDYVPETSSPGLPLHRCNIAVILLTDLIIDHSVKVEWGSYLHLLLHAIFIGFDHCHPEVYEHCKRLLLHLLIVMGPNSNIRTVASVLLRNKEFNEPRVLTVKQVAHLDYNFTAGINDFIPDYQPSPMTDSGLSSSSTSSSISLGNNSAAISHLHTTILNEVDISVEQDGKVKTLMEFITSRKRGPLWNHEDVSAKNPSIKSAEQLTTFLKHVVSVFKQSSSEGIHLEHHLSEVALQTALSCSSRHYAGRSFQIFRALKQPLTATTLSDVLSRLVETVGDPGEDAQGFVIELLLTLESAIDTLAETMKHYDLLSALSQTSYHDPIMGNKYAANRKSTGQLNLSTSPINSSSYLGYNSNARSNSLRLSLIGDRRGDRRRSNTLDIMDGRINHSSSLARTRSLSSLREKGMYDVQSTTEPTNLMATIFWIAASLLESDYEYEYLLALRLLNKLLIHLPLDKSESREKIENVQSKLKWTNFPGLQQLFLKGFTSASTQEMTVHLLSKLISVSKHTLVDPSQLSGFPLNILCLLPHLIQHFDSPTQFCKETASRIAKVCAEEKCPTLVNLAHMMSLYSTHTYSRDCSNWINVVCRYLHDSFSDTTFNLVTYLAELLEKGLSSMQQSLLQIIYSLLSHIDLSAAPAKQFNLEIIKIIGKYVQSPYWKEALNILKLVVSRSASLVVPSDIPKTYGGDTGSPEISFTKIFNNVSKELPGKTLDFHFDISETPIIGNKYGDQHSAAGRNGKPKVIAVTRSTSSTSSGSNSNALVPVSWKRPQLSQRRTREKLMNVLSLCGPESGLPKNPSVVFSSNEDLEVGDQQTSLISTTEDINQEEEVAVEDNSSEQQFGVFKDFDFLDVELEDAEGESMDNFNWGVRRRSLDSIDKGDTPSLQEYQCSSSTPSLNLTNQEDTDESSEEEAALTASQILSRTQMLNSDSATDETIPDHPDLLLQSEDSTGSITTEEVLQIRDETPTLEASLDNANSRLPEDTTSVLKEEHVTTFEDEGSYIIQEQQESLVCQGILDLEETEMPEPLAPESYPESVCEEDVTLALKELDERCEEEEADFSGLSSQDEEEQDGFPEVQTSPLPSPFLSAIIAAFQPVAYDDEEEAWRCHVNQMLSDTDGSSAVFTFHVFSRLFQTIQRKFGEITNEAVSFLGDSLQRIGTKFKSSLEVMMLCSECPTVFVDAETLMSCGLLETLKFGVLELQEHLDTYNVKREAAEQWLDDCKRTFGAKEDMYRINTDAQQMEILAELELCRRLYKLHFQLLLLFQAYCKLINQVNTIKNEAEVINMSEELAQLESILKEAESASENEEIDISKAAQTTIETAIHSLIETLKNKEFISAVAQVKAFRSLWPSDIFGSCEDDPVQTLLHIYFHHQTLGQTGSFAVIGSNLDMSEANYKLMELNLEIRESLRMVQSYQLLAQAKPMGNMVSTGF
UniProt P01275: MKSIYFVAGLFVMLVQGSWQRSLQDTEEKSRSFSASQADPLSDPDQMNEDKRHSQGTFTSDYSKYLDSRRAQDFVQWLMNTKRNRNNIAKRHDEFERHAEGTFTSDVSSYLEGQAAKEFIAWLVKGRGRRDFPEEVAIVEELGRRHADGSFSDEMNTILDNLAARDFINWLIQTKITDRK
UniProt Q9NZ52: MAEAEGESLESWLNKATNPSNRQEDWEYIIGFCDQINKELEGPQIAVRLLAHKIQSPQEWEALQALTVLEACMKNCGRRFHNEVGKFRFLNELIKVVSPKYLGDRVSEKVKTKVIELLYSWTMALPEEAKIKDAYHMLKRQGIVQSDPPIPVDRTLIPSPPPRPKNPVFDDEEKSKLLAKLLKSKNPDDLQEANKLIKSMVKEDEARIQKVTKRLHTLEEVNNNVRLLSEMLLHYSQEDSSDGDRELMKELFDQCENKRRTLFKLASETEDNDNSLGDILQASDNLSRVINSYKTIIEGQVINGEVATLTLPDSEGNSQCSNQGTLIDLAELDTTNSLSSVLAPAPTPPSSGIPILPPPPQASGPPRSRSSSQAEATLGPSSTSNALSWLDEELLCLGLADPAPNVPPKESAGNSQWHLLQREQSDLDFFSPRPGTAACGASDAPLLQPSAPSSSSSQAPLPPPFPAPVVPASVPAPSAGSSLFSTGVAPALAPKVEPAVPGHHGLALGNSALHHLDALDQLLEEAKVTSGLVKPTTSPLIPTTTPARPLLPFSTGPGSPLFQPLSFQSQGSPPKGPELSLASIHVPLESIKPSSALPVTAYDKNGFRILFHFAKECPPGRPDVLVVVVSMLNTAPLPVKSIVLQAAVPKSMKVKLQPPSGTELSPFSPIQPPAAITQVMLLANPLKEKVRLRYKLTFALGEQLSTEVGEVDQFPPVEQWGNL
UniProt O75879: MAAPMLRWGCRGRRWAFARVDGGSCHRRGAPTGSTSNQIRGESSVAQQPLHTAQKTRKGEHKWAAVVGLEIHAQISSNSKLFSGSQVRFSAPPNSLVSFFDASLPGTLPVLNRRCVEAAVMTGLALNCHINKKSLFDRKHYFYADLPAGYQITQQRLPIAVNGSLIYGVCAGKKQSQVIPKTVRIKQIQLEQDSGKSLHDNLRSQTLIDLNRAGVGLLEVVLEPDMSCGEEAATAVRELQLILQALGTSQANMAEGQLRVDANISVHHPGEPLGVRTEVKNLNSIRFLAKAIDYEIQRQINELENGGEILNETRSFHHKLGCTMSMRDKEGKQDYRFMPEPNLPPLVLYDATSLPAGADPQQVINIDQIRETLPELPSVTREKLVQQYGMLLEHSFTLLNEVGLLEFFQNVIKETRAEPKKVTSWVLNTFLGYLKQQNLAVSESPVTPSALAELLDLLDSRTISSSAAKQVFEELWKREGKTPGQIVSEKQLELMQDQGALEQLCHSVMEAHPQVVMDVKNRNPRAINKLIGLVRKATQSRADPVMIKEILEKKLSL
UniProt Q9UQC2, whole entry, looked up: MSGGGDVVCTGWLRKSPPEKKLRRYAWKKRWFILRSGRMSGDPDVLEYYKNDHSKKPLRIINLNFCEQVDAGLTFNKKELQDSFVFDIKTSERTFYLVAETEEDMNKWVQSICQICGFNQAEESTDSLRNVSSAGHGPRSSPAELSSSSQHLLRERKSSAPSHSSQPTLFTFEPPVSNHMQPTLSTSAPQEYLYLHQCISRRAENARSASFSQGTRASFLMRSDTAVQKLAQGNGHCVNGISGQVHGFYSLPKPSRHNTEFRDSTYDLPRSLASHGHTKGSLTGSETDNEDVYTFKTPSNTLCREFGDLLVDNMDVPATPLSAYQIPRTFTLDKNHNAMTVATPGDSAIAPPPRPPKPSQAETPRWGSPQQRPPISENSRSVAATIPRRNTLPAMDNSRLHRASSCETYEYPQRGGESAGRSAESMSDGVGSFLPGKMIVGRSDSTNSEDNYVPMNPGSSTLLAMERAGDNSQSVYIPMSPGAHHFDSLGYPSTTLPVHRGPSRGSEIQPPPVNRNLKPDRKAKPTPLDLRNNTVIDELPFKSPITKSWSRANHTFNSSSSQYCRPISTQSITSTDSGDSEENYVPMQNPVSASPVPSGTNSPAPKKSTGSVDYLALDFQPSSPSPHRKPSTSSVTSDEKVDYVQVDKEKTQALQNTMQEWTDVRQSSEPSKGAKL

Tests used:
Test in all cases: log2 fold change, soluble protein after heating vs DMSO (PISA); higher = thermal stabilisation; K562 cells, 10 uM, 30 min; active = over 0.2 and 3.5 SD of the protein, either way, in both replicates (recomputed)
[1] = compound: C1=CC=C(C=C1)[C@H](COC2=CC3=C(C=C2)NC(=O)N3)NC(=O)C4=CC=CN(C4=O)CC5=CC(=C(C=C5)F)F
In short: (§1)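 Quantification of soluble protein used TMTpro 16plex LC-MS/MS, with channel sums equalised. Samples were the supernatant after 21,000xg for 90 min of pooled aliquots from K562 cells (2×10^6 cells/mL) treated with 10 μM compound for 30 min, heated for 3 min over 48°C-58°C, and extracted in PBS with 0.5% NP-40 at 4°C. Values, from duplicates, describe thermal stability against control samples on a log2 fold-change scale.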

[2] = compound: CC1=C(SC2=C1C(=N[C@H](C3=NN=C(N32)C)CC(=O)N)C4=CC=C(C=C4)Cl)C
In short: as §1

[3] = compound: c1ccc([C@@H]2C[C@H]2NC2CCNCC2)cc1
In short: as §1

[4] = compound: CC1=C2C(=CC=C1)N=C(N(C2=O)C3=CC=CC=C3C)CN4C=NC5=C(N=CN=C54)N
In short: as §1

[5] = compound: Cc1sc2c(c1C)C(c1ccc(Cl)cc1)=N[C@@H](CC(=O)OC(C)(C)C)c1nnc(C)n1-2
In short: as §1

## GALNT10 (UniProt Q86SR1)
[1]
  log2 fold change: inactive: 0.105
[2]
  log2 fold change: inactive: -0.013
[3]
  log2 fold change: inactive: -0.058

## FYB1 isoform 3 (UniProt O15117)
[1]
  log2 fold change: inactive: -0.09
[4]
  log2 fold change: inactive: 0.005
[5]
  log2 fold change: inactive: -0.017

## GALNT7 (UniProt H0YAH3)
[1]
  log2 fold change: inactive: 0.045
[2]
  log2 fold change: inactive: -0.083
[4]
  log2 fold change: inactive: 0.136
[3]
  log2 fold change: inactive: -0.19

## FTSJ3 (UniProt Q8IY81)
[2]
  log2 fold change: inactive: -0.276
[3]
  log2 fold change: inactive: 0.097

## FOXRED2 (UniProt Q8IWF2)
[2]
  log2 fold change: inactive: -0.103
[4]
  log2 fold change: inactive: 0.195
[5]
  log2 fold change: inactive: 0.033
[3]
  log2 fold change: inactive: -0.066

## GARS1 (UniProt H7C443)
[2]
  log2 fold change: inactive: 0.001
[4]
  log2 fold change: inactive: 0.053
[5]
  log2 fold change: inactive: 0.173
[3]
  log2 fold change: inactive: 0.017

## G6PC3 (UniProt Q9BUM1)
[4]
  log2 fold change: inactive: 0.053

## GDPD3 (UniProt Q7L5L3)
[4]
  log2 fold change: inactive: -0.295

## GALNT3 (UniProt Q14435)
[5]
  log2 fold change: inactive: -0.136

## FXYD5 (UniProt Q96DB9)
[2]
  log2 fold change: inactive: 0.177
[4]
  log2 fold change: inactive: 0.19
[3]
  log2 fold change: inactive: -0.133

## GEMIN2 (UniProt O14893)
[1]
  log2 fold change: inactive: 0.044
[2]
  log2 fold change: inactive: 0.013
[4]
  log2 fold change: inactive: -0.049
[3]
  log2 fold change: inactive: 0.025

## GEMIN8 (UniProt Q9NWZ8)
[2]
  log2 fold change: inactive: -0.294
[4]
  log2 fold change: inactive: 0.003
[5]
  log2 fold change: inactive: 0.124
[3]
  log2 fold change: inactive: 0.091

## FRYL isoform 2 (UniProt O94915)
[2]
  log2 fold change: inactive: -0.043
[4]
  log2 fold change: inactive: 0.507
[3]
  log2 fold change: inactive: 0.025

## FZD5 (UniProt Q13467)
[1]
  log2 fold change: inactive: -0.022
[5]
  log2 fold change: inactive: -0.126

## GABPB1 (UniProt Q06547)
[1]
  log2 fold change: inactive: -0.032
[4]
  log2 fold change: inactive: -0.102
[5]
  log2 fold change: inactive: -0.201

## GATAD2B (UniProt Q8WXI9)
[4]
  log2 fold change: inactive: 0.171
[5]
  log2 fold change: inactive: -0.022

## GGT1 (UniProt P19440)
[1]
  log2 fold change: inactive: -0.064
[5]
  log2 fold change: inactive: 0.161

## FOXO3 (UniProt O43524)
[2]
  log2 fold change: inactive: 0.065
[4]
  log2 fold change: inactive: 0.012
[5]
  log2 fold change: inactive: 0.125
[3]
  log2 fold change: inactive: -0.039

## GAK (UniProt O14976)
[2]
  log2 fold change: inactive: 0.095
[4]
  log2 fold change: inactive: -0.032
[5]
  log2 fold change: inactive: 0.078
[3]
  log2 fold change: inactive: -0.209

## FOSL1 (UniProt P15407)
[1]
  log2 fold change: inactive: 0.061
[2]
  log2 fold change: inactive: -0.027
[4]
  log2 fold change: inactive: 0.139
[3]
  log2 fold change: inactive: 0.061

## GCG (UniProt P01275)
[2]
  log2 fold change: inactive: 0.058
[3]
  log2 fold change: inactive: 1.01

## GGA3 (UniProt Q9NZ52)
[1]
  log2 fold change: inactive: -0.072
[2]
  log2 fold change: inactive: 0.103
[4]
  log2 fold change: inactive: 0.025
[5]
  log2 fold change: inactive: -0.027
[3]
  log2 fold change: inactive: 0.014

## FOXJ2 (UniProt Q9P0K8)
[2]
  log2 fold change: inactive: 0.014
[4]
  log2 fold change: inactive: 0.186
[3]
  log2 fold change: inactive: 0.15

## GALNT6 (UniProt Q8NCL4)
[1]
  log2 fold change: inactive: 0.035
[5]
  log2 fold change: inactive: 0.021

## FYTTD1 (UniProt Q96QD9)
[2]
  log2 fold change: inactive: -0.226
[5]
  log2 fold change: inactive: 0.232
[3]
  log2 fold change: inactive: 0.189

## GANAB (UniProt Q14697)
[5]
  log2 fold change: inactive: -0.299

## FRMD8 (UniProt Q9BZ67)
[2]
  log2 fold change: inactive: 0.159
[5]
  log2 fold change: inactive: 0.157
[3]
  log2 fold change: inactive: -0.377

## GDPGP1 (UniProt Q6ZNW5)
[2]
  log2 fold change: inactive: 0.11
[5]
  log2 fold change: inactive: 0.067
[3]
  log2 fold change: inactive: -0.041

## GATB (UniProt O75879)
[4]
  log2 fold change: inactive: 0.123
[5]
  log2 fold change: inactive: -0.035

## GAL (UniProt P22466)
[1]
  log2 fold change: inactive: -0.104
[4]
  log2 fold change: inactive: 0

## GCFC2 isoform 3 (UniProt P16383)
[4]
  log2 fold change: inactive: -0.171
[5]
  log2 fold change: inactive: 0.02

## GAB2 (UniProt Q9UQC2)
[2]
  log2 fold change: inactive: 0.153
[4]
  log2 fold change: inactive: -0.059
[5]
  log2 fold change: inactive: 0.396
[3]
  log2 fold change: inactive: -0.034
